Assay results published in doi:10.1101/2023.01.12.523815.
Numbering of substitutions follows the chain as printed. Names and notes keep the numbering of the source. These are yes or no findings as the source states them, for the method shown. For some assays here: In cells and extracts the contact can be indirect. Some entries that bind do so weakly or less than the wild type. Where a sequence is shown, tags or fusion partners need not be part of it. Values belong to the molecule of their own block, whether it stands above or below them.

Amino acid sequences for entries named in this document (tags omitted).
UniProt Q9UI95: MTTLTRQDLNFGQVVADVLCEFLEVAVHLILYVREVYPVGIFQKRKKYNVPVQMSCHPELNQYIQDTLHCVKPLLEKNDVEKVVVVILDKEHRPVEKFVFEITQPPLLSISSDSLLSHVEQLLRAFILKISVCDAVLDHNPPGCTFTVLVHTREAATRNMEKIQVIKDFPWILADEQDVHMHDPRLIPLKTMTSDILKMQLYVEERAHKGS

Legend:
[1] = target: T1, FLAG-SHLD3 (full-length) (human) (UniProt Q6ZNX1); experiment: co-IP + pull-down
T1 sequence: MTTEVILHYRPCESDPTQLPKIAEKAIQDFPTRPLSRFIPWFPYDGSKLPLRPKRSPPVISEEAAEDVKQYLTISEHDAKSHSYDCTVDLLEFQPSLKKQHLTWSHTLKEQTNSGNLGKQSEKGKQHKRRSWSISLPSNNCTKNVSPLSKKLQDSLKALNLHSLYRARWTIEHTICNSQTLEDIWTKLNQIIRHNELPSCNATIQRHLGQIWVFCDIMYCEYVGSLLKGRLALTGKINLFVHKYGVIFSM

[2] = target: T2, FLAG-SHLD3^N (residues 2-125) (human) (UniProt Q6ZNX1); experiment: co-IP + pull-down
T2 sequence: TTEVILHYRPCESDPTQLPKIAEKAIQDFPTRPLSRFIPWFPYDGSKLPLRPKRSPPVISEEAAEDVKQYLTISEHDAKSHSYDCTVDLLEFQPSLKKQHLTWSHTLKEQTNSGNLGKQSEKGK

[3] = target: T3, FLAG-SHLD3^C (residues 126-250) (human) (UniProt Q6ZNX1); experiment: co-IP + pull-down
T3 sequence: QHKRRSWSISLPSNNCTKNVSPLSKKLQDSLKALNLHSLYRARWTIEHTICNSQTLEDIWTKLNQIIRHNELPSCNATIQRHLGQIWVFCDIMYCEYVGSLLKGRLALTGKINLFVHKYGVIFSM

[4] = target: T4, mCherry-LacR-RIF1^N R36D (human) (UniProt Q5UIP0); experiment: LacR/LacO chromatin recruitment assay
T4 sequence: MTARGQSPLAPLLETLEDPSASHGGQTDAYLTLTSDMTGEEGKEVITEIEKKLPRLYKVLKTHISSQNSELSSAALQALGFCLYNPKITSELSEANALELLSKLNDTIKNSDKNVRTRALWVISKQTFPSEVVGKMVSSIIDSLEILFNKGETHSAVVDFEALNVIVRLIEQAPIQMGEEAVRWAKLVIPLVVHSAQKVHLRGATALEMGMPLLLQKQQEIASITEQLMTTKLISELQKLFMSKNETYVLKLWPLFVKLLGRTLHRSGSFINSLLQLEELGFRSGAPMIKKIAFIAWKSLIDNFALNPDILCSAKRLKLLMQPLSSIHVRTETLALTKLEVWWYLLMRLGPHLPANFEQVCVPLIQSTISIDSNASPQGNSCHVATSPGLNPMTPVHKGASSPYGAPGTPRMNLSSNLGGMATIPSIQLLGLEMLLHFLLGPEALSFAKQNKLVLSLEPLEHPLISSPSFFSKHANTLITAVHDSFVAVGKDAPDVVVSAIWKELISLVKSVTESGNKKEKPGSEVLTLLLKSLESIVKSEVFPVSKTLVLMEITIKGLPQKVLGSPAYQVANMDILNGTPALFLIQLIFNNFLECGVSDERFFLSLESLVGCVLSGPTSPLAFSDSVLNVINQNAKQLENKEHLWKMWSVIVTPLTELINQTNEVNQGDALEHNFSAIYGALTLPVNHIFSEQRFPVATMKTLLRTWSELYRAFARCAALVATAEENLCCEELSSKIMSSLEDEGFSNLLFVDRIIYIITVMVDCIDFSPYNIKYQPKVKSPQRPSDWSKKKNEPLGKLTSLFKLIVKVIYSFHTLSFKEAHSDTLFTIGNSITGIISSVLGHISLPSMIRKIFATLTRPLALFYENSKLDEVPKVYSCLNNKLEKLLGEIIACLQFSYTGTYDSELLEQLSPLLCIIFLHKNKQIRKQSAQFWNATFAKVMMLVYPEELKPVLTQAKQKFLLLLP

[5] = target: T5, mCherry-LacR-RIF1 (1-567) (human) (UniProt Q5UIP0); experiment: LacR/LacO chromatin recruitment assay
T5 sequence: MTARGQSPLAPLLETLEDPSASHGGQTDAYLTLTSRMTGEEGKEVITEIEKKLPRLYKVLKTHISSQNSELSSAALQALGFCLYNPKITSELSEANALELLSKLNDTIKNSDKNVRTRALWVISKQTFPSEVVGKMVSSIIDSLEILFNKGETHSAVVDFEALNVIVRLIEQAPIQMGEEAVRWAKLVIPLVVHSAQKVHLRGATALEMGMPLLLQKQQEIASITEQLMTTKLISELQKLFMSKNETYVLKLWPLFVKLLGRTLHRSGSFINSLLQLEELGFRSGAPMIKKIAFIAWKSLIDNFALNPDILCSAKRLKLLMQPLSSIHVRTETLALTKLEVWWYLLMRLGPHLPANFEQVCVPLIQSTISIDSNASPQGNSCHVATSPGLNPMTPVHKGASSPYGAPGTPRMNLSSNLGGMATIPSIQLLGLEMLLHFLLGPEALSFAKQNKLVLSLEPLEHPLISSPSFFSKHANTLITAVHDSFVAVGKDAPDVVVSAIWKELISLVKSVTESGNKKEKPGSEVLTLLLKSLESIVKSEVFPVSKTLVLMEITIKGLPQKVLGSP

[6] = target: T6, mCherry-LacR-RIF1 (174-567) (human) (UniProt Q5UIP0); experiment: LacR/LacO chromatin recruitment assay
T6 sequence: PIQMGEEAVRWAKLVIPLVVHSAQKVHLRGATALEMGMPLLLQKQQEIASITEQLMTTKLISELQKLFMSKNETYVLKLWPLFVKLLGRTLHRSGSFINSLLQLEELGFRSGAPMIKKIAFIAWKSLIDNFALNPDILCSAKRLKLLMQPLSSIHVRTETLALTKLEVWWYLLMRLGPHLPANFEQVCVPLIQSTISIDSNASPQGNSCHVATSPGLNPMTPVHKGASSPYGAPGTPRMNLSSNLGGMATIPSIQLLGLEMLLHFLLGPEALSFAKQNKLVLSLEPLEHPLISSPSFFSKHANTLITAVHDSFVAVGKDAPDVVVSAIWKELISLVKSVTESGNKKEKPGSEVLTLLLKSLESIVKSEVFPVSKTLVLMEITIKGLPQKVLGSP

[7] = target: T7, mCherry-LacR-RIF1^N (residues 1-967) (human) (UniProt Q5UIP0); experiment: LacR/LacO chromatin recruitment assay
T7 sequence: T4 sequence with D36R

[8] = target: T8, mCherry-LacR-RIF1^N (residues 1-967) E70A (human) (UniProt Q5UIP0); experiment: LacR/LacO chromatin recruitment assay
T8 sequence: T4 sequence with D36R, E70A

binding [1]: binds
binding [2]: binds
binding [3]: no binding
Molecule: 6xHis-REV7 (from UniProt Q9UI95 1-211)

binding [4]: binds
B1: eGFP-SHLD3^C D216R (domain or fragment, UniProt Q6ZNX1 126-250)
chain: T3 sequence with D91R

binding [5]: binds
binding [6]: no binding
binding [7]: binds
binding [8]: binds
B2: eGFP-SHLD3 (residues 2-250) (protein, UniProt Q6ZNX1 2-250)
chain: TTEVILHYRPCESDPTQLPKIAEKAIQDFPTRPLSRFIPWFPYDGSKLPLRPKRSPPVISEEAAEDVKQYLTISEHDAKSHSYDCTVDLLEFQPSLKKQHLTWSHTLKEQTNSGNLGKQSEKGKQHKRRSWSISLPSNNCTKNVSPLSKKLQDSLKALNLHSLYRARWTIEHTICNSQTLEDIWTKLNQIIRHNELPSCNATIQRHLGQIWVFCDIMYCEYVGSLLKGRLALTGKINLFVHKYGVIFSM
